Publication PMC11060674
These are yes or no findings as the source states them, for the method shown. Binding seen in cells or lysates may run through a third protein. Here binding means that the protein was enriched with, or labelled near, the bait; the list need not be complete.

Chains of the proteins cited; added tags and fusions are not shown. Lines headed by an entry give the natural chain unless they say otherwise; changes in a name come on top.
UniProt F6H3T7: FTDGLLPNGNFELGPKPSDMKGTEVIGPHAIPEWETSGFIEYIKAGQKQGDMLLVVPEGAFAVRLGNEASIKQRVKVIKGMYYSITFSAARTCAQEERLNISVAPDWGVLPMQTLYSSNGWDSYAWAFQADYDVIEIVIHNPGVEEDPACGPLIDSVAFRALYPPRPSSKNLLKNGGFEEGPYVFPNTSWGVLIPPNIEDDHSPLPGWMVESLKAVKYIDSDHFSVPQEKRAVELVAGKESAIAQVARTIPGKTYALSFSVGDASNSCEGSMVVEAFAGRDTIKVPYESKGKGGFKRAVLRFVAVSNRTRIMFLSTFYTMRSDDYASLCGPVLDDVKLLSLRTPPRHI
UniProt A0ACM8QQ92: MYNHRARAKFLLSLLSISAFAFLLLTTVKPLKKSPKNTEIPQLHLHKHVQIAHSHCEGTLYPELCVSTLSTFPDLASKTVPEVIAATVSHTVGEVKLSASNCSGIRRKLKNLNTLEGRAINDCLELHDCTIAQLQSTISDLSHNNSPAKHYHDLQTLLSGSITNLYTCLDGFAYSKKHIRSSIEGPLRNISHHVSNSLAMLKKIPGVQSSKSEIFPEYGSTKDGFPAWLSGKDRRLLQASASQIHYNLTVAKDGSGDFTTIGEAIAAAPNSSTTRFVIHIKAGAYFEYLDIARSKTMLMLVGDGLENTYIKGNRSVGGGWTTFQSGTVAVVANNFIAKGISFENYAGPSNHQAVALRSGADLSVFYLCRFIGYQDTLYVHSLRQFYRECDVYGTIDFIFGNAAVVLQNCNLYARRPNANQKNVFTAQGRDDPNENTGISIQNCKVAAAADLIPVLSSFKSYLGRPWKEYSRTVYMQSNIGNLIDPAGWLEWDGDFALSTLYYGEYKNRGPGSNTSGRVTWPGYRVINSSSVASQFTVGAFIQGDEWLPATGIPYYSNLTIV
UniProt E0CQG0: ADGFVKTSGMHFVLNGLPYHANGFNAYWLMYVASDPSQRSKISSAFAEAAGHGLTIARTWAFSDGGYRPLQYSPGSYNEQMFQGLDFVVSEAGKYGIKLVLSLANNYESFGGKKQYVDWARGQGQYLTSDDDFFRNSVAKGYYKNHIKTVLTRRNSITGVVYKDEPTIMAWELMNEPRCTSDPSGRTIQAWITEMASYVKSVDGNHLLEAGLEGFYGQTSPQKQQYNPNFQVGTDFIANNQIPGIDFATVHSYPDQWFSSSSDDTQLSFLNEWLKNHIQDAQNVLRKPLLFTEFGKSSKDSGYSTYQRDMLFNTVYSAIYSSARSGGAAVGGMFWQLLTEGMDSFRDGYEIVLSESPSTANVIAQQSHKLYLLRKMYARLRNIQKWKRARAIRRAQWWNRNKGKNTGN
UniProt D7TFE6: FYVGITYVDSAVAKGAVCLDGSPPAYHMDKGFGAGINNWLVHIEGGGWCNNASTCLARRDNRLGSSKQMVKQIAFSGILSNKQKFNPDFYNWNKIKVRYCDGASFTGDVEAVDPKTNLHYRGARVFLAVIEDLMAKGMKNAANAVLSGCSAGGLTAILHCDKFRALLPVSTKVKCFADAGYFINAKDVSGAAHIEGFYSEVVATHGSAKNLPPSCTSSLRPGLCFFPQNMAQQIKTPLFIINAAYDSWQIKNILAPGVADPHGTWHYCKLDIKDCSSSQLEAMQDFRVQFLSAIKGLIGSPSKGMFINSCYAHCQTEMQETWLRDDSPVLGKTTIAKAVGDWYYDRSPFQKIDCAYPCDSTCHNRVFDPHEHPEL

These substances were tested against DUF642 domain-containing protein (VvDUF642) (Vitis vinifera (endogenous in grape)) (UniProt F6H3T7) (assay: affinity purification with mass spectrometry; IP of endogenous VvDUF642 from grape proteins with the VvDUF642 mAb (CNBr-conjugated antibody, overnight), elution with 0.2 M glycine pH 2.5, in-solution trypsin digestion, MS; anti-mouse IgG as control).

binding, binds:
pectinesterase (VvPEC) (from UniProt A0ACM8QQ92) (enzyme)
cellulase domain-containing protein (VvCDP) (from UniProt E0CQG0)
pectin acetylesterase (VvPAE) (from UniProt D7TFE6) (enzyme)
